Values from PubChem BioAssay AID1508597 (Cure First, 2020).
Aim: 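Genes whose silencing sensitises or protects ovarian cancer cells against rucaparib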 (primary screen). System: human ovarian carcinoma lines grown from tumours: OCI-P5x (papillary serous) and OCI-C5x (clear cell). Knock-down reagent: siRNA pool against human genes, 1.25 pmol siRNA per well. Time to read-out: 72 h or 96 h, depending on the cell culture. Treatment: rucaparib 20 µM (about IC30) or vehicle, present until read-out. Rucaparib or vehicle: Rucaparib. Cell line: OCI-P5x (serous). Read-out: 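Luminescent ATP-based viability assay read 72 or 96 h after transfection, depending on culture, given as normalised percent viability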. Direction: viability, normalised: higher = more viable cells remaining. Call rule: 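a well counts as a hit if its normalised viability is under 80 percent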. Meaning of the calls: active = viability under 80%; inactive = viability 80% or more.
This is a random part of the about 2,100 reagents, in one setting of the screen. 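Calls flag viability under 80% in either arm, not effects specific to rucaparib; the reference for percent is not stated.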 A number with no mark means an inactive call. Some reagents were tested in more than one well and are listed for each. Not given: the 100% reference.

no.	target	technical replicate	viability, normalised (%)
1	CHEK2	1	80.5
2	CHEK2	1	124
3	CHEK2	2	124
4	CHEK2	2	83.2
5	CHEK2	3	60.5 (active)
6	CHEK2	3	107
7	FXR1	1	63 (active)
8	FXR1	2	84
9	FXR1	3	78 (active)
10	DDX43	1	58 (active)
11	DDX43	2	75.6 (active)
12	DDX43	3	78 (active)
13	TGFBR2	1	125
14	TGFBR2	2	113
15	TGFBR2	3	106
16	CACNA1G	1	105
17	CACNA1G	2	99.1
18	CACNA1G	3	83.3
19	TTF2	1	72.3 (active)
20	TTF2	2	62.1 (active)
21	TTF2	3	61.2 (active)
22	TAF10	1	42.7 (active)
23	TAF10	2	32.9 (active)
24	TAF10	3	48.4 (active)
25	SMPD4	1	50.4 (active)
26	SMPD4	2	62.6 (active)
27	SMPD4	3	58.4 (active)
28	EYA1	1	63.9 (active)
29	EYA1	2	61 (active)
30	EYA1	3	74.9 (active)
31	MAGI1	1	89.6
32	MAGI1	2	85
33	MAGI1	3	56.6 (active)
34	MSX1	1	63 (active)
35	MSX1	2	65 (active)
36	MSX1	3	65.2 (active)
37	MED17	1	44 (active)
38	MED17	2	40.1 (active)
39	MED17	3	47.4 (active)
40	GNRHR	1	68.1 (active)
41	GNRHR	2	80.7
42	GNRHR	3	67.1 (active)
43	CHAF1B	1	84.2
44	CHAF1B	1	54.8 (active)
45	CHAF1B	2	91.5
46	CHAF1B	2	70.7 (active)
47	CHAF1B	3	74.6 (active)
48	CHAF1B	3	67.1 (active)
49	PDE11A	1	67.5 (active)
50	PDE11A	2	77.5 (active)
51	PDE11A	3	64.8 (active)
52	CKB	1	95.2
53	CKB	2	91.4
54	CKB	3	79.7 (active)
55	H4C8	1	56 (active)
56	H4C8	2	81.7
57	H4C8	3	67.5 (active)

A run of entries taken from the entries so far, as a working copy:
no.	target	technical replicate	viability, normalised (%)
23	TAF10	2	32.9 (active)
24	TAF10	3	48.4 (active)
25	SMPD4	1	50.4 (active)
26	SMPD4	2	62.6 (active)
